# Results published in the supplement of paper PMC4604168 (melanoma cell lines).
# The list shows a part of the results. Single values are uncertain, as repeats are few or missing.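 Imaging used 1,536-well plates; nuclei positive for cleaved PARP by antibody were divided by total DNA-stained nuclei to yield the apoptosis fraction. Doses for screening kept most cells viable, and cell lines differ markedly in resting and induced cleaved-PARP levels.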
# Legend:
# Assay in all cases: cleaved PARP positive nuclei fraction relative to DMSO control; melanoma cells; higher = more apoptosis
# Details in all cases: library dose: low library concentration; 72 h
# MZ2-MEL = test system: MZ2-MEL
# MeWo = test system: MeWo
# RPMI7951 = test system: RPMI7951
# RVH-421 = test system: RVH-421
# SkMel28 = test system: SkMel28
# SkMel2 = test system: SkMel2
# SkMel30 = test system: SkMel30
# SkMel5 = test system: SkMel5
# UACC257 = test system: UACC257
# UACC62 = test system: UACC62
# WM115 = test system: WM115
# WM1716 = test system: WM1716
# WM1745 = test system: WM1745
# WM3526 = test system: WM3526
# WM3619 = test system: WM3619
# WM451Lu = test system: WM451Lu
Compound,cleaved PARP positive nuclei fraction (MZ2-MEL) [%],cleaved PARP positive nuclei fraction (MeWo) [%],cleaved PARP positive nuclei fraction (RPMI7951) [%],cleaved PARP positive nuclei fraction (RVH-421) [%],cleaved PARP positive nuclei fraction (SkMel28) [%],cleaved PARP positive nuclei fraction (SkMel2) [%],cleaved PARP positive nuclei fraction (SkMel30) [%],cleaved PARP positive nuclei fraction (SkMel5) [%],cleaved PARP positive nuclei fraction (UACC257) [%],cleaved PARP positive nuclei fraction (UACC62) [%],cleaved PARP positive nuclei fraction (WM115) [%],cleaved PARP positive nuclei fraction (WM1716) [%],cleaved PARP positive nuclei fraction (WM1745) [%],cleaved PARP positive nuclei fraction (WM3526) [%],cleaved PARP positive nuclei fraction (WM3619) [%],cleaved PARP positive nuclei fraction (WM451Lu) [%]
"CS(=O)(=O)CCNCc1ccc(-c2ccc3ncnc(Nc4ccc(OCc5cccc(F)c5)c(Cl)c4)c3c2)o1 [lapatinib] + CCN(CC)CCCCNc1ncc2cc(-c3cc(OC)cc(OC)c3)c(NC(=O)NC(C)(C)C)nc2n1 [PD173074] (first compound 0.8 µM, partner dose 0.1 µM)",84.5,142,74.3,28.2,116,48.7,40.9,141,293,162,56.1,418,95.7,80.6,101,36.8
"CNC(=O)c1cc(Oc2ccc(NC(=O)Nc3ccc(Cl)c(C(F)(F)F)c3)cc2)ccn1 [sorafenib] + c1cc(-c2cnn3cc(-c4ccc(OCCN5CCCCC5)cc4)cnc23)ccn1 [Dorsomorphin] (first compound 0.4 µM, partner dose 0.4 µM)",89.5,36.1,89.9,179,134,87.3,58.1,426,110,101,54,78.8,98.1,50.7,71.1,64
"CCCS(=O)(=O)Nc1ccc(F)c(C(=O)c2c[nH]c3ncc(Cl)cc23)c1F + COc1ccc(-c2ccc3c(N4CCOCC4)nc(N4C[C@@H](C)O[C@@H](C)C4)nc3n2)cc1CO [KU0063794] (first compound 0.08 µM, partner dose 0.02 µM)",472,62,123,179,118,426,55.6,33.2,137,176,58.9,21,147,48.3,105,48
"CS(=O)(=O)CCNCc1ccc(-c2ccc3ncnc(Nc4ccc(OCc5cccc(F)c5)c(Cl)c4)c3c2)o1 [lapatinib] + Cc1cc(N2CCOCC2)cc2[nH]c(-c3c(NC[C@@H](O)c4cccc(Cl)c4)cc[nH]c3=O)nc12 [BMS536924] (first compound 0.8 µM, partner dose 0.2 µM)",120,293,35.9,84.6,91.4,124,69.4,62.7,45.4,329,138,96.7,123,125,100,98.7
"O=C(O)c1ccc2c(c1)nc(Nc1cccc(Cl)c1)c1ccncc12 + CC(C)(C)c1cnc(CSc2cnc(NC(=O)C3CCNCC3)s2)o1 [SNS-032] (first compound 0.4 µM, partner dose 0.01 µM)",221,104,254,168,186,110,60.6,304,169,159,156,81.4,144,49.9,108,116
"CNC(=O)c1cc(Oc2ccc(NC(=O)Nc3ccc(Cl)c(C(F)(F)F)c3)cc2)ccn1 [sorafenib] + CC1(C)NC(=O)N(c2ccc([N+](=O)[O-])c(C(F)(F)F)c2)C1=O [nilutamide] (first compound 0.4 µM, partner dose 1 µM)",118,102,144,91.6,173,176,141,137,129,308,199,165,86.1,65.9,94.3,214
"C[C@@H](Oc1cc(-c2cnn(C3CCNCC3)c2)cnc1N)c1c(Cl)ccc(F)c1Cl [Crizotinib] + COc1cc2c(Oc3ccc4[nH]c(C)cc4c3F)ncnc2cc1OCCCN1CCCC1 [cediranib] (first compound 0.2 µM, partner dose 0.4 µM)",119,203,85.6,174,79.8,122,62.5,87.2,108,102,66,58,93.1,166,157,58.9
"CCCS(=O)(=O)Nc1ccc(F)c(C(=O)c2c[nH]c3ncc(Cl)cc23)c1F + OCCn1cc(-c2cnc3nnn(Cc4ccc5ncccc5c4)c3n2)cn1 [PF04217903] (first compound 0.08 µM, partner dose 1 µM)",72,94.9,124,60.1,43.5,126,69.6,117,57.7,184,89.1,22,95.8,97.6,91.5,105
"C=C(c1ccc(C(=O)O)cc1)c1cc2c(cc1C)C(C)(C)CCC2(C)C [Bexarotene] + c1cc(-c2cnn3cc(-c4ccc(OCCN5CCCCC5)cc4)cnc23)ccn1 [Dorsomorphin] (first compound 2 µM, partner dose 0.4 µM)",98.4,49.8,51.8,77.9,157,94.4,248,91,137,102,41.9,136,110,167,88.7,123
"O=C(O)[C@@H]1[O][Sb](=[O])([O][Sb]2(=[O])[O][C@H]([C@H](O)CO)[C@H](O)[C@H](C(=O)O)[O]2)[O][C@H]([C@H](O)CO)[C@@H]1O (stereo not given in full) [stibogluconate] + NCC(=O)Nc1ccc(-n2nc(C(F)(F)F)cc2-c2ccc3c(ccc4ccccc43)c2)cc1 [OSU03012] (first compound 2 µM, partner dose 1 µM)",72.5,224,58.8,94.9,134,95.4,99.8,150,49.3,67.2,148,94.7,90.8,167,94.3,271
